These results are taken from patent US20120296403A1, “METHODS AND COMPOUNDS FOR MUSCLE GROWTH” (NOVARTIS AG, priority 2010, published 2012).

Amino acid sequences for entries named in this document (tags omitted).
UniProt P35569: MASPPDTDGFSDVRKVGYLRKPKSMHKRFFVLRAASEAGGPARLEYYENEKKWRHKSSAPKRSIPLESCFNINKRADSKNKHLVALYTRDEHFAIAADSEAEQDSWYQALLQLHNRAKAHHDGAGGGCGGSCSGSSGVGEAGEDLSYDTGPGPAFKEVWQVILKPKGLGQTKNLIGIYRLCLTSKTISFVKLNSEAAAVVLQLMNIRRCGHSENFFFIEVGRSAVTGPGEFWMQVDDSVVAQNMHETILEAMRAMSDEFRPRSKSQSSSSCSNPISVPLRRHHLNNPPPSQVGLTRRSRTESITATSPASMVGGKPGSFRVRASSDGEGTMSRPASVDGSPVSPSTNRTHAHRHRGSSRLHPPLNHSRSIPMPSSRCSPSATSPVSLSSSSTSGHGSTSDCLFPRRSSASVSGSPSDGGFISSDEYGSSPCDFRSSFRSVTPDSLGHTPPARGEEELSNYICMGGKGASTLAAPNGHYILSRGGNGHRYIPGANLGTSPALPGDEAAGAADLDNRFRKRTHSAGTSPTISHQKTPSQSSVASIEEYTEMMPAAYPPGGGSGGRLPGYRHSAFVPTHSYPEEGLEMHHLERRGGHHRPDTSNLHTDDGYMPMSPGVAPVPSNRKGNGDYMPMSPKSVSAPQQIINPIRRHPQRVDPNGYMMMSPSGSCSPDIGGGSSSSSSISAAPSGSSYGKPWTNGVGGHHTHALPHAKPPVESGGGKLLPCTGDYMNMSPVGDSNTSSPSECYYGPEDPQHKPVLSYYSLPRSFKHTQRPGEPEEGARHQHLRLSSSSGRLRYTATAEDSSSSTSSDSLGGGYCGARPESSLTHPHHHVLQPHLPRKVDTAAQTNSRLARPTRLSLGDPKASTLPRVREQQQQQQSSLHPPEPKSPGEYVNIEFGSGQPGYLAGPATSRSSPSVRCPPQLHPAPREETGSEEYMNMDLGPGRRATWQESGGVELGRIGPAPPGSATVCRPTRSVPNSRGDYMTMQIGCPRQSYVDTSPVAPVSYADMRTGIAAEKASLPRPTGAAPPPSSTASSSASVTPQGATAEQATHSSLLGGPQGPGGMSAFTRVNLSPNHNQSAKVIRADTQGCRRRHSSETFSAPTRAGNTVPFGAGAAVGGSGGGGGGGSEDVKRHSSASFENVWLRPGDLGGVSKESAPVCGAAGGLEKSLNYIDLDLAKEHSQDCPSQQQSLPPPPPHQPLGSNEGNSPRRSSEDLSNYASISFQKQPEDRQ

Assay [1] concerns the target IRS1 (insulin receptor substrate 1), endogenous in C2C12 myotubes (mouse) (UniProt P35569). Kind of assay: co-immunoprecipitation with anti-Fbxo40 antibody from C2C12 myotube lysate, Western blot.
The target is the same in assay [2]. Kind of assay: co-immunoprecipitation with the anti-Fbxo40 antibody from C2C12 myotube lysate, SDS eluate, immunoblot for IRS1. In general terms: In western blotting, separated proteins are transferred to a membrane and probed.

Results are given in words; binding and its absence hold for the method and conditions named. In cells and extracts the contact can be indirect. Some binding calls cover weakened binding; strength is not graded here.

B1: Fbxo40, endogenous in C2C12 myotubes (enzyme, mouse, UniProt P62932 1-710, looked up)
chain: MGRARKPPPALHRHCEGCFNRHCHVPVEPSVSCLVISCHLLCGATFHMCKESEHTLLCPLEQVPCLNSEYGCPLSMARHKLAKHLQVCPASVVCCSMEWIRWPNVDSETFLHENIMKETPSEECLDTALALQDQKVLFRSLKMVELFPETRDATEEEPDMNGDTSWEETGGAVGGVDARLAPNSCLPATSRQMMELSQEERDALAKTKEGMDLDKFGKWESMFSKEHAASVLTGSLGKSEDKNGDVAGKEQCSSNVRIGDAEGSAERRGPQESQKSQELPATMEMTGLAPWQDGVLERLKTAVDAKDYNMYLVHNGRMLIHFGQMPACTPKERDFVYGNLEAQEVKTVYTFKIPVSYCGKRARLGDAMLKCRPSEHKAVDTSDLGISVEDLPKSDLIKTTLQCALERELKGHVISESRSIDGLFMDLATQTYNFEPEQFSSETVLADLLGTAQPGGLHVELHSECVTRRHNKSSSAFTFTCNKFFRRDEFPLHFKNVHTDIQSSLDGWFQHRCPLAYLGCTFVQNHFRPPGQKAKVIYSQELKTFAIKPEVAPELSEKWKSDHLSGRDGKSLNSLTSLPLEVLQYIAGFLDSISLSQLSQVSVLMRNICATLLQERGMVLSQWKKKRYSHGGTSWKVHNQIWQFSSLFSKINSWEFNDVTSMSEHLKTCPFNIVERKTDPIRLTSMCQPQEKARESLVSTFRARPRGRHF
For B1, the binding result in assay [1] and in assay [2] was “binds” in each case.
